Results: the supplement of paper PMC7877785
± gives the uncertainty stated by the source. Many of these values have a large error.

Test: self-splicing fitness, log relative to wild type (ln ratio); higher = more splicing; Tetrahymena group I intron in knt gene, E. coli kanamycin selection, DiMSum; sequences stand for … in CUCUCU…GGAGGGAAAAGUUAUCAGGCAUGCACCUGGUAGCUAGUCUUUAAACCAAUAGAUUGCAUCGGUUUAAAAGGCAAGACCGUCAAAUUGCGGGAAAGGGGUCAACAGCCGUUCAGUACCAAGUCUCAGGGGAAACUUUGAGAUGGCCUUGCAAAGGGUAUGGUAAUAAGCUGACGGACAUGGUCCUAACCACGCAGCCAAGUCCUAAGUCAACAGAUCUUCUGUUGAUAUGGAUGCAGUUCACAGACUAAAUGUCGGUCGGGGAAGAUGUAUUCUUCUCAUAAGAUAUAGUCGGACCUCUCCUUAAUGGGAGCUAGCGGAUGAAGUGAUGCAACACUGGAGCCGCUGGGAACUAAUUUGUAUGCGAAAGUAUAUUGAUUAGUUUUGGAGUACUCGUGGUCG
Summary of the method: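 A randomised library covering all eight P1ex-region intron nucleotides was built with the intron in the knt kanamycin-resistance gene on pET-22b(+) and held in E. coli BL21(DE3). Cells were grown overnight at 37°C or 30°C on LB agar, with or without 25 μg/mL kanamycin, plus 100 μg/mL carbenicillin, 50 μM IPTG and 0.2% rhamnose, and pooled colonies were amplicon-sequenced on an Illumina HiSeq 2500. DiMSum fitness is the error-weighted combination of wild-type-normalised replicate fold changes, kanamycin versus none.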

Sequence | self-splicing fitness (ln) (30 °C) | self-splicing fitness (ln) (37 °C)
UGCGAGCAAUAUUACGCCAA | -3.7 ± 1.1 | -2.42 ± 0.77
GCUCAGCAAUAUUACGGAGC | -3.94 ± 0.51 | 
UUUGAGCAAUAUUACGGGGA | -3.43 ± 0.63 | 
CGAGAGCAAUAUUACGAGAA | -2.18 ± 0.84 | 
GCCUAGCAAUAUUACGGGGC | -4.15 ± 0.59 | 
GGAGAGCAAUAUUACGAAGC |  | -2.36 ± 0.55
UAGGAGCAAUAUUACGCUGG | -2.38 ± 0.43 | -0.826 ± 0.28
GGAUAGCAAUAUUACGCUUC |  | -2.43 ± 0.63
GUUUAGCAAUAUUACGAGAA | -1.94 ± 0.52 | -2.36 ± 0.5
GCUGAGCAAUAUUACGAAUC | -1.15 ± 0.12 | -0.914 ± 0.17
CAGCAGCAAUAUUACGCCCG | 0.0522 ± 0.12 | 0.33 ± 0.12
CGCCAGCAAUAUUACGACCA | -2.86 ± 0.62 | -2.32 ± 0.64
GACGAGCAAUAUUACGCCUA |  | -1.67 ± 0.51
UUAUAGCAAUAUUACGGAAU |  | -3.97 ± 0.72
CGUUAGCAAUAUUACGUCUC | -4.66 ± 1 | 
GUAGAGCAAUAUUACGGUGG | -3.39 ± 0.45 | -0.894 ± 0.23
UCGAAGCAAUAUUACGAGAC |  | -3.57 ± 0.73
GUCGAGCAAUAUUACGCUCG |  | -2.41 ± 0.63
AAAGAGCAAUAUUACGUCGC |  | -3.13 ± 0.6
UUUUAGCAAUAUUACGUAUA |  | -2.64 ± 0.53
CUCGAGCAAUAUUACGCUUU | -4.13 ± 0.46 | -2.31 ± 0.31
UGUUAGCAAUAUUACGGAAC | -2.79 ± 1.2 | -0.182 ± 0.73
UGAGAGCAAUAUUACGACCG | -1.67 ± 0.91 | 
CAUCAGCAAUAUUACGUCAC | -3.06 ± 0.15 | -2.68 ± 0.23
UGUUAGCAAUAUUACGGAGC | -3.14 ± 0.61 | 

Sequence | self-splicing fitness (ln) (30 °C) | self-splicing fitness (ln) (37 °C)
UUGAAGCAAUAUUACGAUCC | -2.97 ± 0.77 | 
GCAGAGCAAUAUUACGGCCA | -3.62 ± 0.6 | 
CUUGAGCAAUAUUACGGACU | -3.97 ± 0.59 | -3.54 ± 0.6
CGAGAGCAAUAUUACGCCAG | -2.21 ± 0.65 | 
UAGGAGCAAUAUUACGGCCG | -0.725 ± 0.75 | -0.292 ± 0.93
UACAAGCAAUAUUACGUCCU | -1.16 ± 0.1 | 0.292 ± 0.15
UCAGAGCAAUAUUACGAACU |  | -3.64 ± 0.59
UUUGAGCAAUAUUACGUGAU |  | -3.47 ± 0.59
GACGAGCAAUAUUACGUGAA | -4.91 ± 0.71 | 
CUGUAGCAAUAUUACGACAC | -4.36 ± 0.51 | 
UCCGAGCAAUAUUACGAGCU | -3.69 ± 0.52 | 
CAGAAGCAAUAUUACGUAUC | -5.56 ± 0.71 | 
GGCGAGCAAUAUUACGAGCC | -0.828 ± 1 | 
CACUAGCAAUAUUACGCAGG | -3.27 ± 0.12 | -1.26 ± 0.15
GGUAAGCAAUAUUACGGUUG |  | -1.68 ± 0.6
UAUUAGCAAUAUUACGAGGC | -1.34 ± 0.73 | 
CGUCAGCAAUAUUACGAAGC | -3.69 ± 0.75 | 
AGUGAGCAAUAUUACGGACA | -1.09 ± 0.2 | -1.5 ± 0.27
CUAAAGCAAUAUUACGCACC | -2.19 ± 0.58 | -2.39 ± 1.1
UUUAAGCAAUAUUACGUAGC | -3.66 ± 1 | 
CACGAGCAAUAUUACGCAGC | -3.73 ± 0.59 | -1.29 ± 0.35
CUAAAGCAAUAUUACGACCC |  | -1.33 ± 1.2
GGUAAGCAAUAUUACGAAAG |  | -3 ± 1.1
AUCCAGCAAUAUUACGUAGA | -0.783 ± 0.073 | -0.0552 ± 0.12
CUCGAGCAAUAUUACGAAUU | -5.36 ± 0.71 | -3.05 ± 0.6

Sequence | self-splicing fitness (ln) (30 °C) | self-splicing fitness (ln) (37 °C)
UUCCAGCAAUAUUACGUUUC | -3.24 ± 0.23 | -2.17 ± 0.21
UUAUAGCAAUAUUACGAAGA | -2.71 ± 0.63 | 
ACAGAGCAAUAUUACGCAGA | -3.37 ± 0.6 | 
UGAGAGCAAUAUUACGAGCU | -3.28 ± 0.53 | 
UGGCAGCAAUAUUACGCAUG | -1.78 ± 0.63 | 0.321 ± 1.2
AGAGAGCAAUAUUACGCAAC | -3.73 ± 0.53 | 
UCAGAGCAAUAUUACGCCGU | -4.07 ± 0.72 | 
GCGGAGCAAUAUUACGCUAG |  | -2.17 ± 0.55
AGAUAGCAAUAUUACGAAAC |  | -3.46 ± 0.6
GGCCAGCAAUAUUACGACCC | -2.9 ± 0.84 | 
UGUUAGCAAUAUUACGCAGC | -3.09 ± 0.53 | 
GCGGAGCAAUAUUACGUCAU | -3.31 ± 0.61 | -3.27 ± 0.73
GUGGAGCAAUAUUACGGUUG |  | -3.96 ± 0.72
CUGGAGCAAUAUUACGUUCA | -3.13 ± 0.61 | -3.2 ± 0.73
UAGUAGCAAUAUUACGGUUC | -3.63 ± 0.59 | -2.04 ± 0.56
UGUCAGCAAUAUUACGAGAC | -4.95 ± 0.51 | 
CACGAGCAAUAUUACGUCCC |  | -1.67 ± 0.65
UGUGAGCAAUAUUACGUCGA | -2.59 ± 0.64 | 0.0981 ± 1.2
CUGCAGCAAUAUUACGUCCA | -4.07 ± 0.6 | -3.54 ± 0.74
CAUAAGCAAUAUUACGUCCC | -3.56 ± 0.75 | -1.39 ± 0.59
CCCUAGCAAUAUUACGAACA | -3.19 ± 0.82 | 
UAAGAGCAAUAUUACGGUAG | -3.79 ± 0.52 | 
GGCAAGCAAUAUUACGGGCC |  | -1.8 ± 0.66
CCGUAGCAAUAUUACGAACC | -3.46 ± 0.52 | 
GUCUAGCAAUAUUACGGCGG | -2.66 ± 0.42 | -2.32 ± 0.4

Looked up one by one from the list above (4):
Sequence | self-splicing fitness (ln) (30 °C) | self-splicing fitness (ln) (37 °C)
UUAUAGCAAUAUUACGGAAU |  | -3.97 ± 0.72
CACUAGCAAUAUUACGCAGG | -3.27 ± 0.12 | -1.26 ± 0.15
CUGGAGCAAUAUUACGUUCA | -3.13 ± 0.61 | -3.2 ± 0.73
GGCGAGCAAUAUUACGAGCC | -0.828 ± 1 | 

(listing goes on)

Sequence | self-splicing fitness (ln) (30 °C) | self-splicing fitness (ln) (37 °C)
ACGGAGCAAUAUUACGGAGA | -1.4 ± 1.2 | 
CAAGAGCAAUAUUACGGACU | -3.3 ± 0.74 | 
ACUAAGCAAUAUUACGUUUG | -3.62 ± 0.18 | -2.22 ± 0.17
UUAGAGCAAUAUUACGAUCC |  | -2.32 ± 0.63
UAGGAGCAAUAUUACGUGCC | -3.81 ± 0.72 | 
AUCGAGCAAUAUUACGUGAU | -3.06 ± 0.76 | 
GAGAAGCAAUAUUACGGGUC | -3.08 ± 0.15 | -2.24 ± 0.16
CCCGAGCAAUAUUACGACUA |  | -3.08 ± 1.1
CAGCAGCAAUAUUACGAGAA | -4.29 ± 1.1 | 
GCUUAGCAAUAUUACGCCCC | -1.3 ± 0.83 | -0.644 ± 0.65
CGCAAGCAAUAUUACGAUGC | -4.66 ± 0.51 | 
CGUAAGCAAUAUUACGCUUC | -4.29 ± 1 | 
GUGGAGCAAUAUUACGUGAA | -3.87 ± 0.62 | 
GGGGAGCAAUAUUACGUAUU | -4.3 ± 0.59 | 
UAGCAGCAAUAUUACGGUAC | -4.38 ± 0.72 | -3.41 ± 0.73
AUUGAGCAAUAUUACGAGAG | -3.8 ± 1 | 
GAUGAGCAAUAUUACGAGGG | -4.5 ± 0.59 | 
CCUGAGCAAUAUUACGCCGG | -1.93 ± 0.58 | 
CUGUAGCAAUAUUACGGACC |  | -2.19 ± 0.63
UUGCAGCAAUAUUACGAACC |  | -1.88 ± 1.2
CUUUAGCAAUAUUACGCCAU | -3.57 ± 0.75 | -1.34 ± 0.87
GCUGAGCAAUAUUACGCGUA | -3.7 ± 1 | 
GCUAAGCAAUAUUACGAUCA | -1.29 ± 0.11 | -0.823 ± 0.093
